{"source": "PubChem BioAssay AID316", "about": "(DTP/NCI, 2004)", "system": "P1534 leukemia ip, CD2F1 mice, survival T/C", "assay": "NCI In Vivo Anticancer Drug Screen. Data for tumor model P1534 Leukemia (intraperitoneal) in CD2F1 (CDF1) mice", "conditions": "T/C endpoint: mean survival time, schedule: Q01DX010 (ip), vehicle: saline, higher T/C = longer survival", "experimental": "The antitumor activity of compounds was measured in mice bearing transplantable tumors. Survival or tumor size were measured and the results are expressed as the measurement made in the treated group (T) divided by the measurement made in the vehicle treated control group (C). The tumor model used in this assay is P1534 Leukemia (intraperitoneal) in CD2F1 (CDF1) mice", "note": "The list does not hold the whole screen: its compounds were picked by chemical class. Not every dose and run of a compound is shown. T/C is the treated group as % of the vehicle group. For survival time, the PubChem record calls one and a half times the control and up active, and a quarter to a half above the control has no call in these data; cut-offs in other NCI protocols can differ. Some T/C values are marked as having no survivor count here; that says nothing about deaths at the dose. Schedule codes are those of the source, taken here to give the interval after Q, in days (D) or hours (H), and the number of doses after X. Some entries were tested several times; their values stand side by side, smallest first."}
{"smiles": "CN(CCCl)CCCl", "values": [{"measurement": "T/C", "setting": "dose: 0.13 mg/kg/injection", "value": "111 [survivor count not shown] and 143 % of control [survivor count not shown]"}, {"measurement": "T/C", "setting": "dose: 0.25 mg/kg/injection", "value": "133 [survivor count not shown] and 162 % of control [survivor count not shown]"}, {"measurement": "T/C", "setting": "dose: 0.5 mg/kg/injection", "value": "144 [survivor count not shown] and 156 % of control [survivor count not shown]"}, {"measurement": "T/C", "setting": "dose: 1.0 mg/kg/injection", "value": "137 [survivor count not shown] and 138 % of control [survivor count not shown]"}, {"measurement": "T/C", "setting": "dose: 62.5 micrograms/kg/injection", "value": "121 % of control [survivor count not shown]"}, {"measurement": "T/C", "setting": "dose: 125.0 micrograms/kg/injection", "value": "164 % of control [survivor count not shown]"}, {"measurement": "T/C", "setting": "dose: 250.0 micrograms/kg/injection", "value": "150 % of control [survivor count not shown]"}, {"measurement": "T/C", "setting": "dose: 500.0 micrograms/kg/injection", "value": "153 % of control [survivor count not shown]"}]}
